Results on one substance are retold here after article PMC10087627.

The chains behind the UniProt entries cited, without tags or fusion partners.
UniProt Q14592: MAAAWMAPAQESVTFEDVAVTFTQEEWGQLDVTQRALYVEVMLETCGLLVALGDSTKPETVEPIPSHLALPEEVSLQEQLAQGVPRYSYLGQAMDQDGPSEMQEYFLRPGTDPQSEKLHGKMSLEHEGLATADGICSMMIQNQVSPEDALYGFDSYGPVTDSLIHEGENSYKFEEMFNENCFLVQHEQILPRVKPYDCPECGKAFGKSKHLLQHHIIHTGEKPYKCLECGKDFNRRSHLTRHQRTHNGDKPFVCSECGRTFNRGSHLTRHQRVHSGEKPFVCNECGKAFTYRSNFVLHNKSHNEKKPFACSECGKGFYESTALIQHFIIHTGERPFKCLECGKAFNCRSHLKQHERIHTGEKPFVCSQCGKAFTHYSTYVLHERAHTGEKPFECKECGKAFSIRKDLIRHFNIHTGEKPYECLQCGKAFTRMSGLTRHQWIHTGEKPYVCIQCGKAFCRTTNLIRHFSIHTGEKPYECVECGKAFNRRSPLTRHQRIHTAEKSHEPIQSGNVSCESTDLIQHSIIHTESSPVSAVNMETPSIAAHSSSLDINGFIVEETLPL
UniProt Q86VX2: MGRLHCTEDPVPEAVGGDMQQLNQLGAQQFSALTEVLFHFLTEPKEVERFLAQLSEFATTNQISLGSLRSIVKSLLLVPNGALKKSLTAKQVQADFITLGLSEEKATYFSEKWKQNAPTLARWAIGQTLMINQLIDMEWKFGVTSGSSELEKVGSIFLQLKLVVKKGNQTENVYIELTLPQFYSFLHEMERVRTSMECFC

Results are given in words; binding and its absence hold for the method and conditions named. In cells and extracts the contact can be indirect. Some results given as binding are weak or reduced against the parent protein; the word gives no strength.

The test concerns the target zinc finger protein 460 (human (endogenous in KG1a and U937)) (UniProt Q14592). Kind of test: co-IP; lysates of KG1a and U937 cells (IP-Western blot lysis buffer); anti-ZNF460 or anti-IgG on Protein A/G magnetic beads, incubated with the supernatant at 4°C for at least 16 h; detection by western blotting.

As to “COMM domain containing 7 (from UniProt Q86VX2 1-200)”, the binding entry was “binds”.
